# Reference: paper PMC7862700
# Sequences of proteins named here, by UniProt entry; tags and fusion partners are left off. A change or cut given only in a name is not applied to a line headed by its entry.
# UniProt Q01892: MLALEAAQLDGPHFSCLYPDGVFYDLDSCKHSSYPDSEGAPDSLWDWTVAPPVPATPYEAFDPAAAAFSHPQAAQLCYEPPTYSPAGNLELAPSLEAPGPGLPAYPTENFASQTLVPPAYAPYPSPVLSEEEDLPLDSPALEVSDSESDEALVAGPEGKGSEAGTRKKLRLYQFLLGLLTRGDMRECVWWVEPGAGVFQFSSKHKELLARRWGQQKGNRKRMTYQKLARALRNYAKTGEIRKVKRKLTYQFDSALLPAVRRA
# UniProt P41161: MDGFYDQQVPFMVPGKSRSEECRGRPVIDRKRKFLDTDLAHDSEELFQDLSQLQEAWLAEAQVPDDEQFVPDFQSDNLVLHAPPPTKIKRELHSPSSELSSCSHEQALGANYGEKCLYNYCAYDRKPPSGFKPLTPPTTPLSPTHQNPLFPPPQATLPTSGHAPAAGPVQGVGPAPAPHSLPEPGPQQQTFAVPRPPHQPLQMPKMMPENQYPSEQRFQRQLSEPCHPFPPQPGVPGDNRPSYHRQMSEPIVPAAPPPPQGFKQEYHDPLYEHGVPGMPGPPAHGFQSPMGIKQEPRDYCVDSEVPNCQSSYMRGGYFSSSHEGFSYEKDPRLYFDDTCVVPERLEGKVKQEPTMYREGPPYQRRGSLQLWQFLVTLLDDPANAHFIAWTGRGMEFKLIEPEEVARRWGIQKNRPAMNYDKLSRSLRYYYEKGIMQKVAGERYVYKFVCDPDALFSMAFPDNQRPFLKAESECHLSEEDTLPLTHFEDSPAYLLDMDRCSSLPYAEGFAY
# UniProt Q99607: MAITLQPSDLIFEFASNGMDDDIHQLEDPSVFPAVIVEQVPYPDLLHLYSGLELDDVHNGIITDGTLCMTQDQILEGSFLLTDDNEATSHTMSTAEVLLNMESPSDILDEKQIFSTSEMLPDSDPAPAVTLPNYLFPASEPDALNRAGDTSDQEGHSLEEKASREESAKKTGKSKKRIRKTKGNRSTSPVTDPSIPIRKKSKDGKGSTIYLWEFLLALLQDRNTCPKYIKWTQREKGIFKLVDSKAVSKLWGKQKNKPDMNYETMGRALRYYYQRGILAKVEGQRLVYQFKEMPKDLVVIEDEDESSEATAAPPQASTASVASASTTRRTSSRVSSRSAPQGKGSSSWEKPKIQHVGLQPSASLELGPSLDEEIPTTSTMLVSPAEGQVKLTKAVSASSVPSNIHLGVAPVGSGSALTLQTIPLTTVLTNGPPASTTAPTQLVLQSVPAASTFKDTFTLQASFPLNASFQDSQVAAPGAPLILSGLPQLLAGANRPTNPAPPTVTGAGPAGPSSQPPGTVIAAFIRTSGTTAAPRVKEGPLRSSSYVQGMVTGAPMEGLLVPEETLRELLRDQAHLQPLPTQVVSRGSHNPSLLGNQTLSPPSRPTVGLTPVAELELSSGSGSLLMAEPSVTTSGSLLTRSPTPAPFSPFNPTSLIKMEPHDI
# The list shows a part of the results, in another mix than the full data. At the low end of the ranking, values are background and their order means little.
# Legend:
# Assay in all cases: DAPPL (digital affinity profiling via proximity ligation, sequencing)
# Settings in all cases: 10 mM Tris-HCl pH 7.5, 50 mM NaCl, 1 mM DTT, 4% glycerol, room temperature, 30 min; GST-TFs on glutathione beads, 16-mer random dsDNA library, 0.1% …; high values mean tight binding; double strand, one strand shown; scale: fold enrichment (6-mer frequency, TF over GST control)
# FLI1 = molecular target: T1, FLI1 (UniProt Q01543)
# T1 sequence: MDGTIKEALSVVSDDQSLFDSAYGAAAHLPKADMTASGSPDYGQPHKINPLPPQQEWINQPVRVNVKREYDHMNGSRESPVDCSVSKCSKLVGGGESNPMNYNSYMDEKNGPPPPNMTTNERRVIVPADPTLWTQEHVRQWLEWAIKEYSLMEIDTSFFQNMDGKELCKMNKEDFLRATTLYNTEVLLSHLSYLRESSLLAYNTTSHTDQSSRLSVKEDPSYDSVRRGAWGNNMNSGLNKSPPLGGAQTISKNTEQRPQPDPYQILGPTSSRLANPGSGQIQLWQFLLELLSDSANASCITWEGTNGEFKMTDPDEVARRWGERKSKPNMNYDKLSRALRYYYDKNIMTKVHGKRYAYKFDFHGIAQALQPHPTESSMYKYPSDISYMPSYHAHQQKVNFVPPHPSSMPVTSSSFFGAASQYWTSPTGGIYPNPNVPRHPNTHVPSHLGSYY
# EHF = molecular target: T2, EHF (UniProt Q9NZC4)
# T2 sequence: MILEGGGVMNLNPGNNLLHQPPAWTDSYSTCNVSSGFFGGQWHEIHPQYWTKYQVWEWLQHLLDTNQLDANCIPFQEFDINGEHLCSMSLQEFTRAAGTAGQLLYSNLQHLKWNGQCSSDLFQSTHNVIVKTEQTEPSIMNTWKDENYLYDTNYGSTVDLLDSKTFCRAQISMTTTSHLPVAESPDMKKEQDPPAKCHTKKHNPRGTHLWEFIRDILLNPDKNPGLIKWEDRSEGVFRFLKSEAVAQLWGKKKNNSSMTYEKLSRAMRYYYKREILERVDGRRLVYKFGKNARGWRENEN
# SPIB = SPIB (UniProt Q01892)
# ETV5 = ETV5 (UniProt P41161)
# ELF4 = ELF4 (UniProt Q99607)
# ETV2 = molecular target: T3, ETV2 (UniProt O00321)
# T3 sequence: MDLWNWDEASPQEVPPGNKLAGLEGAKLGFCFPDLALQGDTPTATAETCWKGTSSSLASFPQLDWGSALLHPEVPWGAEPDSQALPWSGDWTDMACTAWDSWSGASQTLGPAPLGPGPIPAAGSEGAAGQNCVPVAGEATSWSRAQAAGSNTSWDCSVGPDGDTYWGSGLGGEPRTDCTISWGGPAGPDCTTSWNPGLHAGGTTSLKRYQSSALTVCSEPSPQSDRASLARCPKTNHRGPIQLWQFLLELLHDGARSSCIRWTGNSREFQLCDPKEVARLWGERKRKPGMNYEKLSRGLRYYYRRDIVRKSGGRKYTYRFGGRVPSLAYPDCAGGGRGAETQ
# ETV3L = molecular target: T4, ETV3L (UniProt Q6ZN32)
# T4 sequence: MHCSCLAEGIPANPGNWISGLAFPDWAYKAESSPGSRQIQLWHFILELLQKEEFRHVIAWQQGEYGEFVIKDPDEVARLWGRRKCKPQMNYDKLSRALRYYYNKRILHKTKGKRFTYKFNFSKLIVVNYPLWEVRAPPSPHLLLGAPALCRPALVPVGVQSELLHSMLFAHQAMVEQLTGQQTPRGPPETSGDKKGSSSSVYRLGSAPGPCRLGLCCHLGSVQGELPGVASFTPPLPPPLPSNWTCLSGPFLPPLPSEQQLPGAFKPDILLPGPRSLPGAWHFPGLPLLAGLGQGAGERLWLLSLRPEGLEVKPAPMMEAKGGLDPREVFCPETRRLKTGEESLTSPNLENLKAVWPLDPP
Sequence,binding signal (FLI1),binding signal (EHF),binding signal (SPIB),binding signal (ETV5),binding signal (ELF4),binding signal (ETV2),binding signal (ETV3L)
GCCCGG,0.987,0.926,0.925,1.01,0.962,0.848,0.875
AGCATA,0.894,0.967,0.879,0.933,0.947,0.981,0.929
GATCAC,0.884,0.916,0.887,0.928,0.987,0.982,0.985
TAAGGG,1.01,0.944,0.902,0.967,0.925,0.953,0.916
CGTCAT,0.935,0.942,0.96,1,0.962,0.947,0.977
GAAAGG,0.995,0.927,0.866,0.922,0.949,0.85,0.907
AGGTGT,0.842,0.772,0.83,0.854,0.834,0.833,0.77
GAAAGC,0.873,0.818,0.966,0.856,0.933,0.885,0.891
AGACTC,0.955,0.841,0.926,0.899,0.934,0.992,0.929
AGCTTG,0.983,0.942,0.922,0.991,0.819,0.958,0.885
AATCGT,0.899,0.872,0.861,0.888,0.903,0.876,0.97
CTGTGT,0.869,0.763,0.798,0.844,0.904,0.997,0.841
ACAAGT,0.937,0.95,0.885,0.911,0.949,0.783,0.89
GATCGA,0.806,0.81,0.81,0.848,0.861,0.77,0.837
GTAGCG,0.908,0.883,0.887,0.92,0.89,0.94,0.875
ACAGTT,0.852,0.836,0.841,0.887,0.837,0.812,0.858
AGCACG,0.968,0.901,0.91,0.845,0.9,0.919,0.891
GCGCGT,0.862,0.857,0.869,0.801,0.884,0.968,0.888
AAGCCG,0.923,0.919,0.859,0.929,0.884,0.918,0.888
AAGGCC,0.89,0.857,0.977,0.903,0.925,0.985,0.897
TTGAGA,0.928,0.883,0.918,0.869,0.892,0.866,0.86
AGCGAA,0.939,,0.907,0.909,0.894,0.783,0.901
TCATTG,0.997,,0.937,0.957,0.965,0.948,1.04

Sequence,binding signal (FLI1),binding signal (EHF),binding signal (SPIB),binding signal (ETV5),binding signal (ELF4),binding signal (ETV2),binding signal (ETV3L)
TGTCAG,0.846,0.936,0.934,0.853,0.921,0.827,0.94
GCCACA,0.935,0.929,0.874,0.971,0.956,0.912,0.946
CGCTGT,0.971,0.923,0.917,0.956,0.893,1.01,0.956
GTGGTC,0.874,0.92,0.946,0.868,0.874,0.724,0.859
GCGGCT,0.956,,0.952,0.974,0.886,1.08,0.99
AGGATA,0.996,0.998,0.971,0.984,0.916,0.97,1
ATAGTG,0.927,0.89,0.984,0.916,0.865,0.803,0.924
GACCAA,0.942,0.981,0.914,0.929,0.994,0.999,0.95
TTAGGA,0.86,,0.936,0.915,0.92,0.964,0.869
CGAGAA,0.87,0.888,0.997,0.919,0.88,0.915,0.882
TAAGAG,0.874,0.953,0.89,0.861,0.908,0.86,0.91
TGTCGC,0.858,,0.844,0.983,0.929,0.804,0.924
GAGAAT,0.778,0.692,0.738,0.745,0.673,0.721,0.81
AGAGAT,0.874,0.916,0.813,0.909,0.89,0.854,0.946
CGAATG,0.993,,0.99,0.911,1.13,1,0.995
AGAAGG,0.599,0.71,0.646,0.666,0.683,0.712,0.671
AGGTTC,0.874,0.808,0.867,0.847,0.828,0.91,0.811
CTAGGA,0.876,,0.926,0.932,0.957,0.993,0.979
TCGAAG,0.981,0.807,0.9,0.897,0.957,0.808,0.904
CTGGGG,0.766,0.801,0.763,0.819,0.776,0.879,0.836
GGAATG,0.838,0.868,0.924,0.839,0.843,0.937,0.918
TGTTAG,0.892,0.979,0.941,0.927,0.978,1.03,0.833
AGGAAT,0.777,0.819,0.758,0.845,0.782,0.748,0.789

# Record cards, as listed above. Values in the order: binding signal (FLI1)	binding signal (EHF)	binding signal (SPIB)	binding signal (ETV5)	binding signal (ELF4)	binding signal (ETV2)	binding signal (ETV3L)
# CTGGGG reads 0.766	0.801	0.763	0.819	0.776	0.879	0.836
# AGAGAT reads 0.874	0.916	0.813	0.909	0.89	0.854	0.946
